PubChem BioAssay AID1508597 | Cure First, 2020

Test: 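Genes whose silencing sensitises or protects ovarian cancer cells against rucaparib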 (primary screen)
Cells: human ovarian carcinoma lines grown from tumours: OCI-P5x (papillary serous) and OCI-C5x (clear cell)
Reagent: siRNA pool against human genes, 1.25 pmol siRNA per well
Duration: 72 h or 96 h, depending on the cell culture
Challenge: rucaparib 20 µM (about IC30) or vehicle, present until read-out
Detection: 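Luminescent ATP-based viability assay read 72 or 96 h after transfection, depending on culture, given as normalised percent viability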
Direction: viability, normalised: higher = more viable cells remaining
Hit rule: 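a well counts as a hit if its normalised viability is under 80 percent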
Calls: active = viability under 80%; inactive = viability 80% or more
In all, the deposit lists about 2,100 reagents; below is a random part of them. 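Calls flag viability under 80% in either arm, not effects specific to rucaparib; the reference for percent is not stated.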 Not given: the 100% reference.

target,rucaparib or vehicle,cell line,technical replicate,"viability, normalised (%)",Outcome
MIER2,Rucaparib,OCI-C5x (clear cell),1,43.9,active
MIER2,Rucaparib,OCI-C5x (clear cell),2,40.8,active
MIER2,Rucaparib,OCI-C5x (clear cell),3,41.4,active
MIER2,Rucaparib,OCI-P5x (serous),1,52,active
MIER2,Rucaparib,OCI-P5x (serous),2,56.6,active
MIER2,Rucaparib,OCI-P5x (serous),3,49.9,active
MIER2,Vehicle,OCI-C5x (clear cell),1,48.5,active
MIER2,Vehicle,OCI-C5x (clear cell),2,46.4,active
MIER2,Vehicle,OCI-C5x (clear cell),3,52.7,active
MIER2,Vehicle,OCI-P5x (serous),1,68.6,active
MIER2,Vehicle,OCI-P5x (serous),2,62.9,active
MIER2,Vehicle,OCI-P5x (serous),3,46.9,active
WWC2,Rucaparib,OCI-C5x (clear cell),1,36.7,active
WWC2,Rucaparib,OCI-C5x (clear cell),2,41.2,active
WWC2,Rucaparib,OCI-C5x (clear cell),3,37.3,active
WWC2,Rucaparib,OCI-P5x (serous),1,58.8,active
WWC2,Rucaparib,OCI-P5x (serous),2,50.5,active
WWC2,Rucaparib,OCI-P5x (serous),3,62.1,active
WWC2,Vehicle,OCI-C5x (clear cell),1,34.2,active
WWC2,Vehicle,OCI-C5x (clear cell),2,38.1,active
WWC2,Vehicle,OCI-C5x (clear cell),3,41.8,active
WWC2,Vehicle,OCI-P5x (serous),1,42.6,active
WWC2,Vehicle,OCI-P5x (serous),2,68.5,active
WWC2,Vehicle,OCI-P5x (serous),3,66.6,active
HMGN5,Rucaparib,OCI-C5x (clear cell),1,58.5,active
HMGN5,Rucaparib,OCI-C5x (clear cell),2,55,active
HMGN5,Rucaparib,OCI-C5x (clear cell),3,62.6,active
HMGN5,Rucaparib,OCI-P5x (serous),1,60.2,active
HMGN5,Rucaparib,OCI-P5x (serous),2,48.9,active
HMGN5,Rucaparib,OCI-P5x (serous),3,69.8,active
HMGN5,Vehicle,OCI-C5x (clear cell),1,52.5,active
HMGN5,Vehicle,OCI-C5x (clear cell),2,77.7,active
HMGN5,Vehicle,OCI-C5x (clear cell),3,65.4,active
HMGN5,Vehicle,OCI-P5x (serous),1,58.8,active
HMGN5,Vehicle,OCI-P5x (serous),2,78.7,active
HMGN5,Vehicle,OCI-P5x (serous),3,80.4,inactive
RAD23A,Rucaparib,OCI-C5x (clear cell),1,40.4,active
RAD23A,Rucaparib,OCI-C5x (clear cell),2,48.3,active
RAD23A,Rucaparib,OCI-C5x (clear cell),3,29.1,active
RAD23A,Rucaparib,OCI-P5x (serous),1,72.1,active
RAD23A,Rucaparib,OCI-P5x (serous),2,67.2,active
RAD23A,Rucaparib,OCI-P5x (serous),3,43.9,active
RAD23A,Vehicle,OCI-C5x (clear cell),1,22.2,active
RAD23A,Vehicle,OCI-C5x (clear cell),2,26.2,active
RAD23A,Vehicle,OCI-C5x (clear cell),3,47.1,active
RAD23A,Vehicle,OCI-P5x (serous),1,61.5,active
RAD23A,Vehicle,OCI-P5x (serous),2,67.1,active
RAD23A,Vehicle,OCI-P5x (serous),3,65,active
STK32B,Rucaparib,OCI-C5x (clear cell),1,44.1,active
STK32B,Rucaparib,OCI-C5x (clear cell),2,48.8,active
STK32B,Rucaparib,OCI-C5x (clear cell),3,56.2,active
STK32B,Rucaparib,OCI-P5x (serous),1,72.6,active
STK32B,Rucaparib,OCI-P5x (serous),2,55.4,active
STK32B,Rucaparib,OCI-P5x (serous),3,78.7,active
STK32B,Vehicle,OCI-C5x (clear cell),1,37.9,active
STK32B,Vehicle,OCI-C5x (clear cell),2,39.8,active
STK32B,Vehicle,OCI-C5x (clear cell),3,42.1,active
STK32B,Vehicle,OCI-P5x (serous),1,72,active
STK32B,Vehicle,OCI-P5x (serous),2,68.2,active
STK32B,Vehicle,OCI-P5x (serous),3,57,active
